PubChem BioAssay AID1224830, NIAID – 2016
This is one part, drawn at random, of about 18,000 reagents. In the full data, about 2,900 (16%) got an active call. 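Calls are made per well; low scores hint the gene aids the LPS response, high scores that it dampens it.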 Repeated entries: four replicate wells of each siRNA pool.

Test: 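Host factors that control LPS-induced TNF expression in human macrophages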 (primary screen)
Cell system: human THP-1 monocytic leukaemia cells, TNF dual-luciferase reporter clone, PMA-differentiated to macrophage-like cells
Reagents: siRNA pool against human genes, 50 nM
Timing: LPS for 4 h, given about 3 days after siRNA transfection
Challenge: bacterial LPS (TLR4 ligand), 10 ng/ml
Measurement: 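Ratio of firefly to renilla light, scaled to the plate median and expressed as a robust z-score per replicate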
Reading the numbers: TNF reporter robust z-score: higher = stronger TNF reporter response to LPS
Active means: 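Each well counts as active if its z-score is over 2.8 or under -1.5; controls are left without a call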

TNF reporter robust z-score	activity call	Target gene
0.14	inactive	ZNF234
-1.05	inactive	ZNF234
-0.56	inactive	ZNF234
-0.21	inactive	ZNF234
-0.79	inactive	GPR42
0.25	inactive	GPR42
1.52	inactive	GPR42
1.4	inactive	GPR42
0.47	inactive	KRTAP10-2
1.04	inactive	KRTAP10-2
0.23	inactive	KRTAP10-2
1.61	inactive	KRTAP10-2
0.23	inactive	TFF2
0.51	inactive	TFF2
0.46	inactive	TFF2
0.17	inactive	TFF2
-0.24	inactive	SMG8
-0.69	inactive	SMG8
0.22	inactive	SMG8
-1.21	inactive	IL18BP
-0.68	inactive	IL18BP
-0.9	inactive	IL18BP
-0.9	inactive	C3P1
-0.47	inactive	C3P1
-0.08	inactive	C3P1
0.01	inactive	C3P1
0.22	inactive	HIF1AN
2.28	inactive	HIF1AN
0.08	inactive	HIF1AN
0.13	inactive	HIF1AN
-1.05	inactive	TTR
-1.23	inactive	TTR
-1.32	inactive	TTR
-0.75	inactive	TTR
0.36	inactive	ZNF195
0.91	inactive	ZNF195
0.53	inactive	ZNF195
0.51	inactive	ZNF195
-1.82	active	PFN3
-1.17	inactive	PFN3
-1.15	inactive	PFN3
-1.24	inactive	PFN3
-0.43	inactive	SEMA3F
0.78	inactive	SEMA3F
-0.9	inactive	SEMA3F
0.12	inactive	SEMA3F
-0.76	inactive	CRYBG1
-0.71	inactive	CRYBG1
-0.86	inactive	CRYBG1
-0.69	inactive	CRYBG1

Next entries follow.
TNF reporter robust z-score	activity call	Target gene
-0.48	inactive	LY6D
0.22	inactive	LY6D
0.98	inactive	LY6D
1.54	inactive	LY6D
1.91	inactive	PPEF1
-0.67	inactive	PPEF1
-0.19	inactive	PPEF1
-0.55	inactive	PPEF1
-0.56	inactive	C9orf43
0.2	inactive	C9orf43
-1.18	inactive	C9orf43
-0.43	inactive	C9orf43
0.12	inactive	CCDC14
0.03	inactive	CCDC14
0.49	inactive	CCDC14
0.19	inactive	CCDC14
-1.5	inactive	LSP1
-0.87	inactive	LSP1
-0.89	inactive	LSP1
-0.82	inactive	LSP1
0.51	inactive	GSPT2
-0.14	inactive	GSPT2
0.02	inactive	GSPT2
0.74	inactive	GSPT2
2.96	active	MLKL
0.65	inactive	MLKL
0.56	inactive	MLKL
-0.23	inactive	MLKL
1.16	inactive	EXOSC6
-0.3	inactive	EXOSC6
-0.23	inactive	EXOSC6
0.25	inactive	EXOSC6
-0.25	inactive	TERF2IP
-0.27	inactive	TERF2IP
-0.37	inactive	TERF2IP
-0.75	inactive	TERF2IP
0.52	inactive	TMEM92
-0.17	inactive	TMEM92
0.33	inactive	TMEM92
0	inactive	TMEM92
-1.94	active	HNRNPA1
-0.49	inactive	HNRNPA1
-0.1	inactive	HNRNPA1
-0.57	inactive	HNRNPA1
-1.33	inactive	SPANXN4
-0.87	inactive	SPANXN4
-1.25	inactive	SPANXN4
-1.18	inactive	SPANXN4
-1.25	inactive	HAPLN4
-1.03	inactive	HAPLN4
-1.06	inactive	HAPLN4
-1.29	inactive	HAPLN4
0.33	inactive	EHD3
1.85	inactive	EHD3
0.15	inactive	EHD3
0.41	inactive	EHD3
0.43	inactive	ZNF593
0.38	inactive	ZNF593
-1.21	inactive	ZNF593
-0.69	inactive	ZNF593
